This passage reports binding results from PMC12077101.

Sequences of proteins named here, by UniProt entry; tags and fusion partners are left off.
UniProt Q86WV6: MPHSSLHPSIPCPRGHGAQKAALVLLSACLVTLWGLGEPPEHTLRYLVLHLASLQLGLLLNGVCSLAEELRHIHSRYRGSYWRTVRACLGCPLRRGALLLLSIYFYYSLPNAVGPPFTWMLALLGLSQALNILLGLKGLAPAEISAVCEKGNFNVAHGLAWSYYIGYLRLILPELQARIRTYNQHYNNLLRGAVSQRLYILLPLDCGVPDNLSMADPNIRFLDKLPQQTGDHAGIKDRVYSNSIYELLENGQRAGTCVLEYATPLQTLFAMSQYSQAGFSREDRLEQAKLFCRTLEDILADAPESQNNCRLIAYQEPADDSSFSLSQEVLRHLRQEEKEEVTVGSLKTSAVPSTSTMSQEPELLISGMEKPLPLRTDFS

Assay [1] addresses T1, Flag-tagged AUP1 1-93 (transmembrane domain only) (human) (UniProt Q9Y679).
T1 sequence: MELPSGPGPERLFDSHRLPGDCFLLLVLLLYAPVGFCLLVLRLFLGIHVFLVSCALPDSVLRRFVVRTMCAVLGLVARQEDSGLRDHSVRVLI
Briefly: co-IP; HEK293T cells co-transfected with both tagged plasmids for 24 h; Pierce IP Lysis Buffer; anti-Flag antibody or normal IgG overnight at 4°C, beads 6 h, six washes with cold PBS; immunoblot.

Assay [2] addresses T2, Flag-tagged AUP1, full length, expressed in HEK293T cells (human) (UniProt Q9Y679).
T2 sequence: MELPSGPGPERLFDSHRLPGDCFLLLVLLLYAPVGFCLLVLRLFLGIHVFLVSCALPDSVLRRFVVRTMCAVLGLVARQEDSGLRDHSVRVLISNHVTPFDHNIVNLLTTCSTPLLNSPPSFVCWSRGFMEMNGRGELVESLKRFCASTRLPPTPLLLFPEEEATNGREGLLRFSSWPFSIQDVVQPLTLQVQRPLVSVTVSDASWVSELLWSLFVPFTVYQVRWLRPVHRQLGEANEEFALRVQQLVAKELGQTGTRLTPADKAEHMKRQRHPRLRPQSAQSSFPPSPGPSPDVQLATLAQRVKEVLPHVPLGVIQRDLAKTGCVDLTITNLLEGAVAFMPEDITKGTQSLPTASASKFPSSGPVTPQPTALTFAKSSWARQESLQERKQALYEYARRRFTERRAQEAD
The assay is described as above.

Assay [3] addresses T3, Flag-AUP1, full length, expressed in HeLa cells (human) (UniProt Q9Y679).
T3 sequence: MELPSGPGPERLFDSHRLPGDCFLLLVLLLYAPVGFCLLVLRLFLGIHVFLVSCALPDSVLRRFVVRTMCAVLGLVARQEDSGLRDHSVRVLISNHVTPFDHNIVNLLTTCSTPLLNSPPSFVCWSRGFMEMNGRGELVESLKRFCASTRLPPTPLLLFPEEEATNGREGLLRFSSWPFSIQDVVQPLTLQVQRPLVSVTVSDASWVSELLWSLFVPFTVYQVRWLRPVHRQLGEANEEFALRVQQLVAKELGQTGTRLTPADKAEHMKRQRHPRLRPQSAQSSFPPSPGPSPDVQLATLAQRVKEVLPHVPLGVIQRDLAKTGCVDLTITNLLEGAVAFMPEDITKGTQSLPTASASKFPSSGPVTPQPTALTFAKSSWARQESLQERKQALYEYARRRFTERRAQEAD
Briefly: co-IP; HeLa cells transfected with a Flag-tagged plasmid for 24 h, partner endogenous; Pierce IP Lysis Buffer; anti-Flag antibody or IgG; immunoblot; in Fig. 2E cells were then transfected with HT-DNA for the indicated times (interaction substantially decreased). On the technique in general: A western blot detects proteins with antibodies after separation by electrophoresis.

In assay [4] the target is Flag-STING (stimulator of interferon genes), full length, expressed in HEK293T cells (human) (UniProt Q86WV6). The assay is described as follows: co-IP; HEK293T cells co-transfected with both tagged plasmids for 24 h; Pierce IP Lysis Buffer; anti-Flag antibody or normal IgG overnight at 4°C, beads 6 h, six washes with cold PBS; immunoblot.
For assay [5], the target named is Flag-STING, full length, expressed in HeLa cells (human) (UniProt Q86WV6). Briefly: co-IP; HeLa cells transfected with a Flag-tagged plasmid for 24 h, partner endogenous; Pierce IP Lysis Buffer; anti-Flag antibody or IgG; immunoblot; in Fig. 2E cells were then transfected with HT-DNA for the indicated times (interaction substantially decreased).

Results are given in words; binding and its absence hold for the method and conditions named. In cells and extracts the contact can be indirect. Some binding calls cover weakened binding; strength is not graded here. For some assays here: Tags and fused reporters may be left off the sequences shown.

On to “HA-tagged STING (pCDNA3.1-3×HA-TMEM173), expressed in HEK293T cells (from UniProt Q86WV6 1-379)”, for which the binding result in assay [1] was “binds weakly”; in assay [2], “binds”.

For “endogenous STING of HeLa cells (from UniProt Q86WV6 1-379)”, the binding entry in assay [3] was “binds”.

B1: V5-AUP1 (ancient ubiquitous protein 1), full length, expressed in HEK293T cells (protein, UniProt Q9Y679 1-410)
chain: MELPSGPGPERLFDSHRLPGDCFLLLVLLLYAPVGFCLLVLRLFLGIHVFLVSCALPDSVLRRFVVRTMCAVLGLVARQEDSGLRDHSVRVLISNHVTPFDHNIVNLLTTCSTPLLNSPPSFVCWSRGFMEMNGRGELVESLKRFCASTRLPPTPLLLFPEEEATNGREGLLRFSSWPFSIQDVVQPLTLQVQRPLVSVTVSDASWVSELLWSLFVPFTVYQVRWLRPVHRQLGEANEEFALRVQQLVAKELGQTGTRLTPADKAEHMKRQRHPRLRPQSAQSSFPPSPGPSPDVQLATLAQRVKEVLPHVPLGVIQRDLAKTGCVDLTITNLLEGAVAFMPEDITKGTQSLPTASASKFPSSGPVTPQPTALTFAKSSWARQESLQERKQALYEYARRRFTERRAQEAD
Turning to B1, in assay [4], the binding entry is “binds”.

B2: endogenous AUP1 of HeLa cells (protein, UniProt Q9Y679 1-410)
chain: MELPSGPGPERLFDSHRLPGDCFLLLVLLLYAPVGFCLLVLRLFLGIHVFLVSCALPDSVLRRFVVRTMCAVLGLVARQEDSGLRDHSVRVLISNHVTPFDHNIVNLLTTCSTPLLNSPPSFVCWSRGFMEMNGRGELVESLKRFCASTRLPPTPLLLFPEEEATNGREGLLRFSSWPFSIQDVVQPLTLQVQRPLVSVTVSDASWVSELLWSLFVPFTVYQVRWLRPVHRQLGEANEEFALRVQQLVAKELGQTGTRLTPADKAEHMKRQRHPRLRPQSAQSSFPPSPGPSPDVQLATLAQRVKEVLPHVPLGVIQRDLAKTGCVDLTITNLLEGAVAFMPEDITKGTQSLPTASASKFPSSGPVTPQPTALTFAKSSWARQESLQERKQALYEYARRRFTERRAQEAD
B2: the binding result in assay [5] is on record as “binds”.
